Laboratory results from PubChem BioAssay AID1671190 (National Center for Advancing Translational Sciences (NCATS), 2021).
“And” between values parts separate entries of the source, which are not always exact repeats. Equal values may be shown once. The campaign covered roughly 580,000 compounds. About 6,100 (1.1%) were called active. Inconclusive results, whose numbers are uncertain, are shown with a selection of clear calls. Calls come from the whole dose curve; as a rule, active = well fitted inhibition curve with a large enough effect; inconclusive = small, poorly fitted or top-dose-only effect, or another doubt; inactive = no such curve, though single readings can be large or run the other way. A potency beside an inconclusive call is a rough fit, not a confirmed value.

Chains of the proteins cited; added tags and fusions are not shown. Lines headed by an entry give the natural chain unless they say otherwise; changes in a name come on top.
UniProt P18054: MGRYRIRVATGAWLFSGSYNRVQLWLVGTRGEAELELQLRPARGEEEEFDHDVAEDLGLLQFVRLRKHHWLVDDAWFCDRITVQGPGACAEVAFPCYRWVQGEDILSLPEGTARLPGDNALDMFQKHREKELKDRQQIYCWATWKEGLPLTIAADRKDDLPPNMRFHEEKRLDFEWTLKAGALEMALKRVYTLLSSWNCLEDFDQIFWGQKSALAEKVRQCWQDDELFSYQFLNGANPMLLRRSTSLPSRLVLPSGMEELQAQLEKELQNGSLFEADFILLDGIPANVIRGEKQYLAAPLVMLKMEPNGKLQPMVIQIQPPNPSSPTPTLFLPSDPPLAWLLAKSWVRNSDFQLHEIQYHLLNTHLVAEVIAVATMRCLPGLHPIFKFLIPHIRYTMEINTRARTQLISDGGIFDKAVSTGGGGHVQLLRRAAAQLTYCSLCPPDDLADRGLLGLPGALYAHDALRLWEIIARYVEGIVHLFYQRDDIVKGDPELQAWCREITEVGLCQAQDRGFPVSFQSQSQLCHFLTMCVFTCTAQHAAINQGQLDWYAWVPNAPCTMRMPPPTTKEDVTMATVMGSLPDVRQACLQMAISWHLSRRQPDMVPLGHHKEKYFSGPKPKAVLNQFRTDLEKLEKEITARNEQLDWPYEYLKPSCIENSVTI

target: Polyunsaturated fatty acid lipoxygenase ALOX12 (Homo sapiens) (UniProt P18054); test: Primary qHTS assay for inhibitors of human arachidonate 12S-lipoxygenase (ALOX12): Round 2; settings: purified 12hLO, xylenol orange hydroperoxide absorbance; activity change, negative = inhibition: at 108 µM (top of the series) unless noted
Summary of the method: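 Purified human 12hLO (150 nM final) in 25 mM Hepes, 0.01% Triton X-100, pH 7.0 was preincubated 15 min at room temperature with compound. Then 40 uM arachidonic acid was added, 30 min. Hydroperoxide was read by Fe-XO absorbance ratio 573/405 nm.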
% is set by controls: 0 for no effect and ±100 for the full control effect; potency is the fitted concentration of half-maximal effect.

Compound | Potency | activity change, negative = inhibition
Cc1cc(C(=O)NCC(=O)Nc2c(C)cccc2C)c(C)o1 | inconclusive: 39.8 µM [inhibitor, partial curve, poor fit] | 
Cc1cccc(C(C)(C)C)c1OCCN1CCCC1 | inconclusive: 3.55 µM [inhibitor, full curve, poor fit] | 
Cc1ccc(CN2CCc3nc(C(=O)Nc4ccc(Cl)cc4)oc3CC2)cc1 | inconclusive: 20 µM [inhibitor, full curve] | 
CCCCNc1oc(-c2ccc(COc3ccccc3C)o2)nc1C#N |  | inactive: -58.1%
COc1cccc(NC(=O)Nc2ccncc2)c1 |  | inactive: -2.78%
COC(=O)c1ccc(-c2nc(-c3ccc(Br)o3)no2)cc1 | inconclusive: 112 µM [inhibitor, single point] | 
COc1cccc(C2/C(=C(\O)c3ccc4c(c3)OCCO4)C(=O)C(=O)N2CCc2ccccc2)c1 (stereo unspecified) | inconclusive: 6.31 µM [inhibitor, full curve, poor fit] | 
CC(C)NC(=S)NN=C1CCCCCCCCCCC1 | active: 35.5 µM | 
COCCN(Cc1ccccc1)C(=O)c1cccc(S(=O)(=O)N2CCN(c3ccccc3)CC2)c1 |  | inactive: 4.82%
CCOc1ccc2nc(Cl)c(/C=C/C(=O)c3ccco3)cc2c1 | inconclusive: 141 µM [inhibitor, single point] | 
COC(=O)c1ccc(NC(=O)C(=O)NCC(c2cccnc2)N2CCN(c3ccccc3)CC2)cc1 (stereo unspecified) | inconclusive: 56.2 µM [inhibitor, partial curve, poor fit] | 
O=C(c1ccc(Cl)cc1)c1oc2ccccc2c1CS(=O)c1ccc(Cl)cc1 (stereo unspecified) | active: 4.47 µM | 
Cc1ccc(N2CCN(C(=S)c3ccc(-c4cccc([N+](=O)[O-])c4)o3)CC2)cc1 | inconclusive: 31.6 µM [inhibitor, partial curve] | 
O=C1NC2(CCN(Cc3ccc(C(F)(F)F)cc3)CC2)COc2ccccc21 | inconclusive: 44.7 µM [inhibitor, partial curve] | 
CCCCNC(=O)c1cc(-c2ccc(C)o2)nc2ccccc12 | inconclusive: 17.8 µM [inhibitor, full curve] | 
CCN1CCN(Cc2ccc(NC(=O)c3cc(NC(=O)C4=NN(c5ccccc5)C(=O)C4)cc(OC)c3)cc2C(F)(F)F)CC1 | inconclusive: 25.1 µM [inhibitor, partial curve, poor fit] and inconclusive: 89.1 µM [inhibitor, partial curve, poor fit] | 
CN(C)CCCN(C(=O)c1ccc(S(=O)(=O)N2CCCCCC2)cc1)c1nc2c(F)cc(F)cc2s1 | inconclusive: 44.7 µM [inhibitor, partial curve, poor fit] | 
CCOC(=O)C1=CN(CC(=O)Nc2ccc(C(C)=O)cc2)S(=O)(=O)N=C1C |  | inactive: 7.44%
COc1ncnc2c1N[C@@](C)(O)c1c(F)c(F)c(F)c(F)c1S2 | inconclusive: 6.31 µM [inhibitor, partial curve] | 
CCOC(=O)/C(C#N)=C1/CCCCCN1C | inconclusive: 15.8 µM [inhibitor, partial curve, poor fit] | 
O=C(O)C1C(c2ccccc2)C(C(=O)O)C1c1ccccc1 (stereo unspecified) | inconclusive: 89.1 µM [inhibitor, single point] | 

Compound | Potency | activity change, negative = inhibition
CCOc1cc(/C=N/Nc2ccc(C(=O)O)cc2)ccc1OC(=O)c1ccccc1C | inconclusive: 79.4 µM [inhibitor, partial curve, poor fit] | 
COc1ccc(C(C)=O)cc1CSc1nnc(-c2ccccc2O)n1-c1ccccc1 |  | inactive: 1.91%
CCN1C(=O)/C(=C/c2c(C)nn(C)c2C)SC1=S | active: 10 µM | 
N#Cc1ccc(C(=O)OCC(=O)Nc2ccc(S(N)(=O)=O)cc2)cc1 | inconclusive: 20 µM [inhibitor, partial curve, poor fit] | 
CN(Cc1ccc(C(=O)NCC(F)(F)F)cc1)C(=O)C1CCCN(C(=O)c2ccc(Cl)cc2)C1 (stereo unspecified) | inconclusive: 35.5 µM [inhibitor, partial curve, poor fit] | 
O=C(NCCc1ccncc1)C1CN(Cc2cccnc2)CC12CCOCC2 (stereo unspecified) |  | inactive: 104%
COc1ccc(CC(=O)N(Cc2cccs2)C2CCS(=O)(=O)C2)cc1 (stereo unspecified) |  | inactive: -19.2%
Cc1ccc2[nH]c(C)c(CCN(Cc3ccncc3)C(=S)NC(C)(C)C)c2c1 |  | inactive: 4.32%
CN(Cc1cc(=O)n2ccsc2n1)C1CCCCC1 |  | inactive: 1.25%
O=C(/C=C/c1cccc([N+](=O)[O-])c1)NCCSCc1ccc(Cl)cc1 | inconclusive: 50.1 µM [inhibitor, partial curve, poor fit] | 
c1ccc2c(c1)OCCOCCOCCOCCOc1ccccc1OCCO2 |  | inactive: -2.8%
COc1ccc(OC)c(NC(=O)Cn2c(=O)n(Cc3ccco3)c(=O)c3cc(OC)c(OC)cc32)c1 | inconclusive: 126 µM [inhibitor, partial curve, poor fit] | 
Nc1ccc(S(=O)(=O)NCC(=O)OCCOc2ccccc2)cc1[N+](=O)[O-] | inconclusive: 50.1 µM [inhibitor, partial curve, poor fit] | 
CC(C)CNC(=O)CC(C)Cc1nnc2c(=O)n(-c3cccc(F)c3)ccn12 (stereo unspecified) |  | inactive: 2.15%
Cc1ccc(C(=O)Nc2ccc(-c3nc4ccccc4o3)cc2)cc1Cl | inconclusive: 126 µM [inhibitor, partial curve, poor fit] | 
O=C(Oc1c(-c2ccccc2)c(=O)n2c3c(cccc13)CC2)c1ccco1 |  | inactive: 0%
Cc1cccc(OCC(=O)Nc2ccccc2SCc2cc(=O)n3c(ncn3C(C)C)n2)c1C | inconclusive: 44.7 µM [inhibitor, partial curve, poor fit] | 
CCCOC(=O)c1ccc(Oc2c(-c3ccc(OC)cc3O)n[nH]c2C)cc1 | inconclusive: 89.1 µM [inhibitor, single point] | 
CC(NC(=S)Nc1ccccc1)C1COc2ccccc2O1 (stereo unspecified) | inconclusive: 50.1 µM [inhibitor, partial curve, poor fit] | 
CN(C)c1ccc(S(=O)(=O)N2CCCCC2)cc1NS(=O)(=O)c1ccc2ccccc2c1 | inconclusive: 31.6 µM [inhibitor, partial curve, poor fit] | 

As a working copy, part of the list above:
Compound | Potency | activity change, negative = inhibition
CN(Cc1ccc(C(=O)NCC(F)(F)F)cc1)C(=O)C1CCCN(C(=O)c2ccc(Cl)cc2)C1 (stereo unspecified) | inconclusive: 35.5 µM [inhibitor, partial curve, poor fit] | 
O=C(NCCc1ccncc1)C1CN(Cc2cccnc2)CC12CCOCC2 (stereo unspecified) |  | inactive: 104%
COc1ccc(CC(=O)N(Cc2cccs2)C2CCS(=O)(=O)C2)cc1 (stereo unspecified) |  | inactive: -19.2%
